Screening data, single-dose tests

The chains behind the UniProt entries cited, without tags or fusion partners.
UniProt P9WPC5, whole entry: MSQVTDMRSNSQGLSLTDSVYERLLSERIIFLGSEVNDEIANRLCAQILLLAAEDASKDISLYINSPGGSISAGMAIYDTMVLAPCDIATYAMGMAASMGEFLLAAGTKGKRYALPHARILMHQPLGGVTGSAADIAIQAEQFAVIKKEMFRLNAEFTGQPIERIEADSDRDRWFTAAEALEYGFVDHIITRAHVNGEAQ
UniProt P9WPC3, whole entry partner: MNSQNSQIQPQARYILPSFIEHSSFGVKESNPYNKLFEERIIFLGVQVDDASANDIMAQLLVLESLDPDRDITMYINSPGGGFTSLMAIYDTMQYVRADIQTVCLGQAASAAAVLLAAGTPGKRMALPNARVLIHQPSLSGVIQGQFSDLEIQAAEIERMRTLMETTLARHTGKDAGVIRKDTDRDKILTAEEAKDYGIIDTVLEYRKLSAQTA
UniProt I6X8D2, whole entry: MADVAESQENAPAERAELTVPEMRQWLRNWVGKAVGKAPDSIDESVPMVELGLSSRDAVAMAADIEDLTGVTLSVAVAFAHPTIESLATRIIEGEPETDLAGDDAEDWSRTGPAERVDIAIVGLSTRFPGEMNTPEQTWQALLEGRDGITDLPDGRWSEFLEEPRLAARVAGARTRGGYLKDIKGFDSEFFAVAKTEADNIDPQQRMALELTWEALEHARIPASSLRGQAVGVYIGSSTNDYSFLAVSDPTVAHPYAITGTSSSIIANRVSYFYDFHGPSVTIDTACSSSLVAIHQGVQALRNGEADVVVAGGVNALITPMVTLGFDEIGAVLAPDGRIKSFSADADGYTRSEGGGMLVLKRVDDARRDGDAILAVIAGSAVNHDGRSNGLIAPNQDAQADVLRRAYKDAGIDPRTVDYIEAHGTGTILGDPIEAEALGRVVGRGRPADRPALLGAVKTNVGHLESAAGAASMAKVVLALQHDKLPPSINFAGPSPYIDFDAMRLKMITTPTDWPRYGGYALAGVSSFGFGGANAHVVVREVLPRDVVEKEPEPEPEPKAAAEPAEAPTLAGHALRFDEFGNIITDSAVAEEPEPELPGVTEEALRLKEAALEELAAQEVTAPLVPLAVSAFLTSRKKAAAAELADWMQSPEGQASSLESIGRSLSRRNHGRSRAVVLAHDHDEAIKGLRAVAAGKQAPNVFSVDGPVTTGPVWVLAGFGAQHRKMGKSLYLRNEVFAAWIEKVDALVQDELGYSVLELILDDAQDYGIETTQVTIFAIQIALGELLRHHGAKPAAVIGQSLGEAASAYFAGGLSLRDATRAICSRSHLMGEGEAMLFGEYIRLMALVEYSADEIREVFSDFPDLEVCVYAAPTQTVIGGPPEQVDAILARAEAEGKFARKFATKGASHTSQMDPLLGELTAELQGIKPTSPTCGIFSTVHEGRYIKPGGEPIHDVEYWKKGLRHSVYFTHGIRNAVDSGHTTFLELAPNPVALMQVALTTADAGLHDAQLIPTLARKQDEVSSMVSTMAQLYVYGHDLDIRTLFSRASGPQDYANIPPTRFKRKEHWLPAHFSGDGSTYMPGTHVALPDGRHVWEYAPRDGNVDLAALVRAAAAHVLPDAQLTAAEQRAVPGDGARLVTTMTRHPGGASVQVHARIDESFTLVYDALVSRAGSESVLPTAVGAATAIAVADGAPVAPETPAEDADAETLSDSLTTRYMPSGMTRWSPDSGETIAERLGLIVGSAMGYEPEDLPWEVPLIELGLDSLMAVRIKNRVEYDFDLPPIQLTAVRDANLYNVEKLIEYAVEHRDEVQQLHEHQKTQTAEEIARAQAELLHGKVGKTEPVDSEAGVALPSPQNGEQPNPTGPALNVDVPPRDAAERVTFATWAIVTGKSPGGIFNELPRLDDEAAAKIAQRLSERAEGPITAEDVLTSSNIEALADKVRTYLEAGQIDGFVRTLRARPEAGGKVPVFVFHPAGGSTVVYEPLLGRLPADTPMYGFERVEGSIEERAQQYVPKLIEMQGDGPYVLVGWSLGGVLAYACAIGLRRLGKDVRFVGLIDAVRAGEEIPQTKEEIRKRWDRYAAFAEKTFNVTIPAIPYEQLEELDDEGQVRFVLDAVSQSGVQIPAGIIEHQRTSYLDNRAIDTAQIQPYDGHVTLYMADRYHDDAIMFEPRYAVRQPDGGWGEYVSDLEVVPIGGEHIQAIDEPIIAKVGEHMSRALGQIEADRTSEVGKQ

A: 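Protease assay of ClpP1P2, read by the AMC dye that it sets free. Target: ClpP1P2, Mycobacterium tuberculosis (UniProt P9WPC5 and UniProt P9WPC3). Compounds at 50 µM. Higher reads as stronger inhibition, judged from the few compounds that gave an IC50. Most other retested compounds had strongly negative values. Size under these conditions: about 69,000 compounds, about 10 of them at 50% or above in at least one test.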
B: 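Polyketide synthase Pks13, Mycobacterium tuberculosis (UniProt I6X8D2). Enzyme assay of the thioesterase domain of polyketide synthase 13; the read-out is not stated. Tested at 30 µM. Higher reads as stronger inhibition (inferred from which compounds were picked for retests). About 67,000 compounds were tested under these conditions; 0.46% (about 300) showed 50% or more at least once.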

Results are given as percent effect. How 0% and 100% were set is not recorded. Most values in the screen are low, and negative values occur. Compounds were drawn at random from those tested, without regard to their results.

Compound: COCCN(Cc1ccc(F)cc1Cl)C(=O)c1c(C)noc1C
A: -18.99
B: -5.535

Compound: Cc1nn(C)c(C)c1C1CCCN1Cc1noc(C2CC2)n1 (stereo not drawn)
A: 3.182
B: -8.215

Compound: O=C(CN1CCCC1)N1CCCC1c1nc(O)cc(-c2ccccn2)n1 (stereo not drawn)
A: -6.716
B: -24.95

Compound: Cc1ccc(CN2CCC3(CC2)NC(=O)CC3c2ccncc2)cc1C (stereo not drawn)
A: 13.26
B: -1.5

Compound: COc1ncccc1CN1C[C@H]2C[C@@H](C(=O)NCC3CC3)N(C)[C@H]2C1
A: 0.6997
B: -7.184

Compound: CC(C)Sc1ncccc1C(=O)NCc1ccc(O)cc1
A: 3.04
B: -25.1

Compound: COCCNC(=O)Nc1ccc(F)c(C(N)=O)c1
A: 3.331
B: 5.728

Compound: CCc1ccc(CN2CCNC(C(=O)N3CCN(C)CC3)C2)nc1 (stereo not drawn)
A: -8.073
B: -13.46

Compound: CN(Cc1cc2ccccc2o1)S(C)(=O)=O
A: 1.841
B: -21.18

Compound: CCc1ccc2c(c1)C(CCNC(=O)CCc1ccsc1)C(=O)N2 (stereo not drawn)
A: -10.62
B: -42.41

Compound: Cc1cc(C)n(CC(C)NC(=O)C(C)(C)c2ccccc2F)n1 (stereo not drawn)
A: 10.78
B: -6.448

Compound: CCOC1CCN(CC(=O)Nc2oc(C)c3c(C)n[nH]c(=O)c23)CC1
A: -10.42
B: 5.254

Compound: COc1ccc(CC(=O)N2CCc3nnc(N(C)C)cc3C2)cc1F
A: 24.24
B: -5.466

Compound: COc1cc(CCNC(=O)NCCC2CCCO2)ccc1C (stereo not drawn)
A: -7.469
B: 2.755

Compound: O=C(c1ccc(F)cc1)N1CCC2(CCN(Cc3ccccn3)C2=O)C1 (stereo not drawn)
A: -3.049
B: -1.302

Compound: CS(=O)(=O)N1CCO[C@@H]2CN(C(=O)COC3CCCC3)C[C@@H]2C1
A: -2.992

Compound: Cc1ccc(C)c(S(=O)(=O)CCN2CCc3c(ncn3C)C2)c1
A: -30.97
B: -35.47

Compound: CC(C)CN1CCC2(CC1)C(=O)Nc1ccc(C(=O)N(C)C)cc12
A: -2.682
B: -15.01

Compound: Cc1c(F)cccc1NC(=O)N(C(C)CS(C)(=O)=O)C1CC1 (stereo not drawn)
A: -7.881
B: -0.369

Compound: Cc1nsc(NC(=O)N2CCC(C(C)(C)O)CC2)n1
A: 0.1713
B: -9.133

Compound: Cc1cnn(CC2CCCCN2C(=O)CC(F)(F)F)c1 (stereo not drawn)
A: -9.548
B: -10.17

Compound: O=C(C1CC1)N1Cc2[nH]nc(COCc3cccnc3)c2C1
A: -11.26
B: -0.5762

Compound: Cc1ccccc1CC1(CO)CCCN(c2ncnc3sccc23)C1 (stereo not drawn)
A: -13.24
B: 11.08

Compound: O=C1[C@H]2CN(Cc3ccc(F)cc3)C[C@H]2CN1c1cncnc1
A: -15.11
B: -5.88

Compound: O=C1N(Cc2ccc(F)c(F)c2)CCCC1(O)CNCc1ncc[nH]1 (stereo not drawn)
A: -18.83
B: -5.228

Compound: CCC(C)c1ccc(NC(=O)C2CCN(C(=O)COC)CC2)cc1 (stereo not drawn)
A: -3.532
B: -23.2

Compound: CC(C)N(Cc1ccccc1)C(=O)c1cc(C2CCCN2C)ccn1 (stereo not drawn)
A: -2.763
B: -4.618

Compound: CCc1[nH]ncc1C(=O)N1CCCC(n2ccnc2C)C1 (stereo not drawn)
A: -19.75
B: -1.167

Compound: Cc1nc(CN(C)C2CCN(Cc3nc4ccccc4s3)C2)no1 (stereo not drawn)
A: -5.078
B: -13.93

Compound: CCOc1ccccc1C(CC(=O)N(C)c1ccccc1)NC(C)=O (stereo not drawn)
A: -1.712
B: 2.596

Compound: CN(C)C(=O)COCc1cncc2c1CCN(Cc1cnn(C)c1)C2
A: 3.959

Compound: CCn1cnnc1CNC(=O)N1CCOC(c2ccc(Cl)cc2)C1 (stereo not drawn)
A: -11.78
B: -26.76

Compound: O=C(O)C1CN(c2cccc(Cl)c2)CCO1 (stereo not drawn)
A: -8.892
B: 7.155

Compound: Cc1csc(C(C#N)C(=O)Nc2ccccc2)n1 (stereo not drawn)
A: -0.4583
B: 20.9

Compound: Cc1cc(CNC(=O)c2cccs2)ccc1S(C)(=O)=O
A: -18.88
B: -12.7

Compound: Cn1nc(C(=O)N2CCOCC2)c2c1CN(CC1CCC1)C2
A: -15.36
B: -23.19

Compound: Cc1cc(C(=O)NC(C)C(=O)Nc2cc(F)ccc2C)nc(C)n1 (stereo not drawn)
A: 4.353
B: -3.434

Compound: O=C(c1ccnc(-n2cnnc2)c1)N1CCCC2(CCOC2)C1 (stereo not drawn)
A: 1.797
B: -3.062

Compound: CN(Cc1cc(-c2ccccc2)no1)C1CCCN(c2cccnn2)C1 (stereo not drawn)
A: -3.361
B: -6.489

Compound: O=C(c1ccco1)N1CC[C@@H]2O[C@H](COCC3CCOCC3)CC[C@@H]21
A: 9.517
B: -11.06

Compound: O=C(c1ccnn1COc1ccc(Cl)cc1)N1CCSCC1
A: -8.019
B: -7.361

Compound: Cn1ccnc1CCC1CCCCN1Cc1nccn1C (stereo not drawn)
A: -1.161
B: -9.71

Compound: CN(C)CCn1ccc2cc(NC(=O)NCc3ccon3)ccc21
A: -4.086
B: -12.63

Compound: COCCN1CC=C(c2cccc(OC)c2)CC1
A: -4.422
B: -19.96

For reference, 5 entries once more:

Compound	A	B
O=C(c1ccnc(-n2cnnc2)c1)N1CCCC2(CCOC2)C1 (stereo not drawn)	1.797	-3.062
CN(Cc1cc(-c2ccccc2)no1)C1CCCN(c2cccnn2)C1 (stereo not drawn)	-3.361	-6.489
O=C1N(Cc2ccc(F)c(F)c2)CCCC1(O)CNCc1ncc[nH]1 (stereo not drawn)	-18.83	-5.228
Cc1ccc(C)c(S(=O)(=O)CCN2CCc3c(ncn3C)C2)c1	-30.97	-35.47
CCc1[nH]ncc1C(=O)N1CCCC(n2ccnc2C)C1 (stereo not drawn)	-19.75	-1.167

Source: ChEMBL document CHEMBL3988442, “University of Dundee, Small-Polar-MMV Screening Library” (2021).